A short description of the experiment: qHTS Assay to Find Inhibitors of Chronic Active B-Cell Receptor Signaling. The note with it: ABC-DLBCL IkBa-CBG/CBR reporter, luminescence ratio (green luciferase fused to IkBa over red control in TMD8 lymphoma cells), 4 h. Put shortly: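 Concentration-response series (up to 46 uM) were applied to TMD8 dual-reporter cells for 4 h at 37C with doxycycline. Green/red ratio, after filter-overlap correction, defined %Activity; red signal alone was normalised to basal cells and zero luminescence.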
For orientation: qHTS replaces the single test concentration by a dilution series.

[1] abbreviates: measured here: CBR red luminescence, cell number.

Each structure is given as a SMILES string. This is one part of the list. Shown are side measurements of this screen, not its main read-out; they come without a call. Most of these compounds were active or inconclusive in the main read-out, so they are no random draw. Words in brackets tell the shape of the fitted curve; partial curves, single points and poor fits give uncertain potencies.

Regarding `CCN(CC(=O)Nc1cc(Cl)ccc1C)C(=O)CSCc1ccccc1`, the concentration at half-maximal activity (AC50) – broadly, the midpoint of the concentration-response curve, whichever way the signal moves – under setting [1] is 6.51 µM [rising, single point].
On the same count and under the same terms, as for `O=C(CCCl)Nc1nc2c(s1)CCc1ccccc1-2`, the figure is 0.251 µM [falling, full curve, poor fit]; as for `OC(CNC1Cc2ccccc2C1)c1ccccc1` (centres undefined), 1.78 µM [rising, full curve]; as for `Cc1ccc(NC(=O)CCn2cccc2)cc1F`, 4.11 µM [rising, full curve, poor fit].
The same measure, in the same setting: as for `COc1cccc(Nc2nc(-c3sc(N)nc3C)cs2)c1`, the figure is 8.2 µM [falling, partial curve, poor fit]; as for `COc1cc(/C=C(\C#N)c2nc3ccccc3[nH]2)cc(OC)c1O`, 4.47 µM [falling, partial curve, poor fit].
Regarding `Cc1cc(C)cc(NC(=O)CSc2ccccc2)c1`, the AC50 under setting [1] was 0.501 µM [rising, full curve, poor fit].
Same read-out and setting: in the case of `Cc1cc(NC(=O)CSc2ccccn2)no1` it was 11.2 µM [rising, partial curve, poor fit].
`COc1ccc2c(-c3ccc(OCCN4CCOCC4)cc3)c(-c3ccccc3OC)sc2c1`: the AC50 (measured here: IkBa-CBG green luminescence) is 16.4 µM [falling, partial curve, poor fit].
As for `OCc1nn2c(c1Br)NC(c1ccccc1)CC2C(F)(F)F` (centres undefined), the concentration at half-maximal activity (AC50) under setting [1] is 18.4 µM [rising, partial curve, poor fit].
Consider `c1ccc(-c2noc(-c3cccc4ccccc34)n2)cc1`, for which the AC50 under setting [1] is 32.6 µM [falling, single point].
Same read-out and setting: as for `CC(=O)Oc1ccc(-c2csc(Nc3cccc(C)n3)n2)cc1`, the figure is 4.47 µM [falling, partial curve].
Still for that read-out and setting: as for `CC(C)CCNC(=O)c1onc(CSc2ccc(F)c(F)c2)c1C(=O)NCCC(C)C`, the figure is 8.91 µM [rising, partial curve, poor fit]; as for `CCOc1ccc(C(=O)Nc2ccc3[nH]ncc3c2)cc1`, 0.398 µM [falling, full curve, poor fit].
In the case of `OC(COc1ccc2cc(Br)ccc2c1)CN1CCCC1` (centres undefined), the AC50 under setting [1] was 13 µM [falling, partial curve].
On the same count and under the same terms, as for `Nc1ccc(-c2nc3ccc(-c4nc5ccccc5o4)cc3[nH]2)cc1`, the figure is 0.112 µM [rising, full curve, poor fit]; as for `CN(C)CCCNC(=S)Nc1ccc(-c2ccccc2)cc1`, 35.5 µM [falling, single point].
Regarding `CN1CCN(C(=S)c2ccc(-c3cccc(Cl)c3Cl)o2)CC1`, the half-maximal activity concentration (AC50) under setting [1] is 2.31 µM [rising, partial curve].
Regarding `Oc1c(C=NCc2ccccc2)sc2ccccc12`, the AC50 under setting [1] is 12.6 µM [falling, partial curve].

(Values after PubChem BioAssay AID493014 (National Center for Advancing Translational Sciences (NCATS), 2011).)
